This passage reports binding signal results from paper PMC7819943, “Rice protein-binding microarrays: a tool to detect cis-acting elements near promoter regions in rice”.

The chains behind the UniProt entries cited, without tags or fusion partners.
UniProt Q0JBA9, entry or part of it: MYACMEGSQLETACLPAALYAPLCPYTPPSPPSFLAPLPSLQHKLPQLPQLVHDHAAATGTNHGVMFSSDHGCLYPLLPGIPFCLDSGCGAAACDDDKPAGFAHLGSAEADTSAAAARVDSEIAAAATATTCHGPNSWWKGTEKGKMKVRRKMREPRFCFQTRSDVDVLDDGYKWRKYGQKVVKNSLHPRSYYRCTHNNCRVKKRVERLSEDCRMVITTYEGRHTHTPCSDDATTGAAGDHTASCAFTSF

Some of the results follow.

For the assay, the target named is OsWRKY34 (Oryza sativa, UniProt Q0JBA9 1-250). The assay is described as follows: protein-binding microarray (RPBM); PBS, 2% BSA, 51.3 ng/ul salmon testes DNA, 50 uM zinc acetate, 200 nM TF, 25 C, 1 h; high values mean tight binding. Conditions: protein: recombinant; tags: N-terminal polyhistidine and DsRed monomer fusion (pET32a); label: CyDye5-dUTP incorporated in the synthesized complementary strand; 3' TTTTT single-stranded linker to array surface; dsDNA, one strand shown. In short, it runs like this:
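Polyhistidine-tagged DsRed fusions of transcription factors, joined at the N-terminus, were expressed in E. coli BL21-CodonPlus and isolated on Ni–NTA. They were incubated at 200 nM for 1 h at 25 °C on a custom Agilent array, double-stranded and BSA-blocked, in PBS with 2% BSA, salmon testes DNA and 50 µM zinc acetate. The binding signal is per-feature fluorescence intensity (arbitrary units) read on an Axon 4000B scanner after washing.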
As for “CTGCTTGGTGCTGCCGGCTACTATATCTTGATGCTTTGTTCGGAGTCACCTAGTGCAG”, the binding signal is 11700 fluorescence intensity (a.u.).
For “CCTCTTTTCTTTTTCTTCCGGCCTCTCCTTCCAAAAGCCTCGGAGTCACCTAGTGCAG”, the binding signal was 10500 fluorescence intensity (a.u.).
The same measure for “GCCCAAGCCTCACAAGGTCCAGCTACCATCCGCCGCTCCTCGGAGTCACCTAGTGCAG”: 8590 fluorescence intensity (a.u.); for “GCCTTATGTTAGCGTTTTGTGTCGGCCACTTGTGTAACTACGGAGTCACCTAGTGCAG”: 8540 fluorescence intensity (a.u.); for “TAAGCTGTACGGGAAGGGTTGACGTTCTCATTGTTATTCCCGGAGTCACCTAGTGCAG”: 8430 fluorescence intensity (a.u.).
On to “CGCCACTAGATTTTTTCCCGTCTCGTGCCATTGACTCGCGCGGAGTCACCTAGTGCAG”, for which the binding signal is 11200 fluorescence intensity (a.u.).
With “AGAGTGTCAGACAGACGGGTGGGCAACTGGGGCGACGATGCGGAGTCACCTAGTGCAG”, the binding signal is 9930 fluorescence intensity (a.u.).
“TATATACCGCTGCAATGCTCGCTAGCTTAGCTAAGCAACTCGGAGTCACCTAGTGCAG”: the binding signal was 8450 fluorescence intensity (a.u.).
As to “ACAACACATCATTGACACACAACTATACCAACGTTCTATCCGGAGTCACCTAGTGCAG”, the binding signal is 8490 fluorescence intensity (a.u.).
Take “TTCACCGAGGTTCCGCTCCGCTCCGCTCGTCTGCGGATCGCGGAGTCACCTAGTGCAG”: the binding signal is 8130 fluorescence intensity (a.u.).
For “TTACTTCTCCTTTGCTATATACGCTCTAAGGCTGCGTTTTCGGAGTCACCTAGTGCAG”, the binding signal is 8260 fluorescence intensity (a.u.).
For “CTGGTGTCCATGGTTTTTTCTCTTATGCTTTGGCAGGATTCGGAGTCACCTAGTGCAG”, the binding signal is 8510 fluorescence intensity (a.u.).
“GTGTCCATGCTGCTTGTTTCTTTCATGGTTAAGCCATTTTCGGAGTCACCTAGTGCAG”: the binding signal was 13400 fluorescence intensity (a.u.).
Regarding “TAATATTACTTATTTTTAATTCCGAATTTCAGCTATTTTTCGGAGTCACCTAGTGCAG”, the binding signal is 8760 fluorescence intensity (a.u.).
As to “TTTCGCTTTTTGCTAGAGATCTAGCCACTTTCTTTGATCGCGGAGTCACCTAGTGCAG”, the binding signal was 8600 fluorescence intensity (a.u.).
“AGTTGCACCATGCCCACCATTCTTCTGCTATACCCCATGACGGAGTCACCTAGTGCAG”: the binding signal is 10400 fluorescence intensity (a.u.).
On to “TTTTCTTTTTTCCCGCACTTTCTTTTCTTCCCGGAGATGTCGGAGTCACCTAGTGCAG”, for which the binding signal was 8400 fluorescence intensity (a.u.).
Regarding “TTTTTTTTTCATTAATTTGCGGCCCTTTGTGCAAGCTGCACGGAGTCACCTAGTGCAG”, the binding signal is 8090 fluorescence intensity (a.u.).
Consider “AACTGTCCCAATCTATTCTCTCCTTATCTCCTCTCCTCCTCGGAGTCACCTAGTGCAG”, for which the binding signal is 8120 fluorescence intensity (a.u.).
The same measure for “ATTATGCCCCTTATTACATTTCAGCCTACAGCGATCTACCCGGAGTCACCTAGTGCAG”: 8140 fluorescence intensity (a.u.); for “TCACCCCTTTGCTACTTTTCATATCCATGCAACATGCATACGGAGTCACCTAGTGCAG”: 8320 fluorescence intensity (a.u.).
As for “GAAATGGTTTTGCTGTTATACCGATCGTTTCCGTATTTACCGGAGTCACCTAGTGCAG”, the binding signal was 10600 fluorescence intensity (a.u.).
With “GGTGTGATATATCTGGTTTTGTGGTTCGGTGGGGTAATTCCGGAGTCACCTAGTGCAG”, the binding signal is 22000 fluorescence intensity (a.u.).
For the sequence “GCTTTTCTCTTTCCTTGCATTCTCTCTCTTTCAACTCAACCGGAGTCACCTAGTGCAG”, the binding signal is 13800 fluorescence intensity (a.u.).
Consider “GTTTGGTGGTACTTTCTGTTACTCCTATTGGATTCTGAAACGGAGTCACCTAGTGCAG”, for which the binding signal was 10400 fluorescence intensity (a.u.).
As to “GTCACCACCATCGATCGCCAGCTCGCGAAAACCAGAATCGCGGAGTCACCTAGTGCAG”, the binding signal is 8950 fluorescence intensity (a.u.).
“ACCAGACTCGGCACCCGCTTTCTCATTTTTTTTTTCTTTTCGGAGTCACCTAGTGCAG”: the binding signal was 8780 fluorescence intensity (a.u.).
Consider “CGATATGGAGATATGGAGTTGTTGATGGTTAATTGCTTCCCGGAGTCACCTAGTGCAG”, for which the binding signal was 10200 fluorescence intensity (a.u.).
For “GGATTGTTTATTAGTTTGCCGATTCACAGTACAAACTTGGCGGAGTCACCTAGTGCAG”, the binding signal was 8520 fluorescence intensity (a.u.).
For “GAGAATAAACACGTGGCCAACTAACTTCATTACACAGTTTCGGAGTCACCTAGTGCAG”, the binding signal was 8030 fluorescence intensity (a.u.).
For the sequence “ACCCACATGTCAGCCTTCATTGCTTTCTTCTTCCTCCTCTCGGAGTCACCTAGTGCAG”, the binding signal was 9690 fluorescence intensity (a.u.).
Regarding “TTTACTATTTGCCACTCTCTCAAAATAACCAGTGCTCAAACGGAGTCACCTAGTGCAG”, the binding signal was 8400 fluorescence intensity (a.u.).
The same measure for “GTTTTCCGATCGTTTCTGACCGTTTTCATCCCTAGTTTGGCGGAGTCACCTAGTGCAG”: 10700 fluorescence intensity (a.u.); for “GTTTTTGTGCTTGGTGGTGGTGGTGGGTGATTTGCAGGGGCGGAGTCACCTAGTGCAG”: 31700 fluorescence intensity (a.u.).
The same measure for “GTTGCAAGAATAGGTATAGGAGAATGTATGGTTGCTTTTTCGGAGTCACCTAGTGCAG”: 8180 fluorescence intensity (a.u.); for “ACTCTACTCCGTATTCTTCTAGTTAACTTGTTCGATCGTCCGGAGTCACCTAGTGCAG”: 12000 fluorescence intensity (a.u.).
With “GCCGCCACCGCAACCTACCGCCGCCGCGGCAAGCCCAAGCCGGAGTCACCTAGTGCAG”, the binding signal was 8960 fluorescence intensity (a.u.).
For “CAAATCCATCTTCTTTTTTGGTCTCTTCTTCTTCTTCTTCCGGAGTCACCTAGTGCAG”, the binding signal is 11100 fluorescence intensity (a.u.).
For the sequence “AGCATCAACTCCAGTTTGTCGGGCCTGCCGTTGACTGACCCGGAGTCACCTAGTGCAG”, the binding signal is 12200 fluorescence intensity (a.u.).
For “CCTGGCCCGACAAACGTCCCACTCTCGCATCCCATCTCATCGGAGTCACCTAGTGCAG”, the binding signal is 9060 fluorescence intensity (a.u.).
“CACTCTCCACCTTCTTCTTCCCAGCTTCTCTCGTCTCGGCCGGAGTCACCTAGTGCAG”: the binding signal was 10700 fluorescence intensity (a.u.).
As for “CTCGCTTCTCCTCCCTCTGCTCCGATCCGCGCGCTCCCACCGGAGTCACCTAGTGCAG”, the binding signal is 8930 fluorescence intensity (a.u.).
